From PubChem BioAssay AID270 (DTP/NCI, 2004) come the findings set out here.

The test has as its system BDF1 mice, s.c. Lewis lung carcinoma, T/C %. In words: NCI In Vivo Anticancer Drug Screen. Data for tumor model Lewis Lung Carcinoma (subcutaneous) in B6D2F1 (BDF1) mice. The gist of the method:
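Readout: survival or tumor size, expressed as treated (T) over vehicle control (C). Transplantable tumor implanted in mice; compound given to the treated group.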

Where [1] appears, read: T/C endpoint: median survival time, dose: 200.0 mg/kg/injection, schedule: Q01DX009 (ip), vehicle: saline with Tween-80, higher T/C = longer survival.
[2] abbreviates: T/C endpoint: median survival time, dose: 127.0 mg/kg/injection, schedule: Q01DX001 (ip), vehicle: saline with Tween-80, higher T/C = longer survival.

The list does not hold the whole screen: it gathers tests that were run many times, whatever their T/C, doses with no T/C, and many T/C values between a quarter and a half above the control. Other doses and runs of a compound stand elsewhere. T/C is the treated group as % of the vehicle group. Schedule codes are those of the source, read here as Q, the interval in days (D) or hours (H), X, the number of doses. Some entries give survivors of the animals treated and no T/C: the source files T/C as zero there, which appears to mark a toxic dose or a test without result, not a measured value. Some doses without a T/C left all or most animals alive at the check, yet need not have been tolerated: survival well below the control is almost never listed, so the zero probably covers shortened survival too. Survivors were counted at the toxicity check, usually on the fifth day, unless a day is given; later deaths do not show. Brackets with × say how often a value occurs here. Some entries hold several experiments; their values stand side by side, smallest first. Where survival is the endpoint, the PubChem record calls one and a half times the control and up active, and a quarter to a half above the control has no call in these data; cut-offs in other NCI protocols can differ. Some T/C values are followed by the survivors on the day toxicity was checked, most often the fifth; where none is given, no animal had died by that day.

For `O=NN(CCCl)C(=O)NC(CCC(=O)O)C(=O)O` (stereo not given), the survivor count (T/C endpoint: median survival time, dose: 121.0 mg/kg/injection, schedule: Q01DX001 (ip), vehicle: saline with Tween-80, higher T/C = longer survival) was 10 of 10 on day 11; the survivor count (T/C endpoint: median survival time, dose: 275.0 mg/kg/injection, schedule: Q01DX001 (ip), vehicle: saline with Tween-80, higher T/C = longer survival) is reported as 10 of 10 on day 11; the survivor count (T/C endpoint: median survival time, dose: 412.0 mg/kg/injection, schedule: Q01DX001 (ip), vehicle: saline with Tween-80, higher T/C = longer survival) is listed as 9 of 10 on day 11; the survivor count (T/C endpoint: median survival time, dose: 508.0 mg/kg/injection, schedule: Q01DX001 (ip), vehicle: saline with Tween-80, higher T/C = longer survival) is listed as 7 of 10 on day 11.
In the case of `CC1CCCC(NC(=O)N(CCCl)N=O)C1` (stereo not given), the survivor count (T/C endpoint: median survival time, dose: 143.0 mg/kg/injection, schedule: Q01DX001 (ip), vehicle: gum acacia, higher T/C = longer survival) is 5 of 10 on day 15.
As for `C1CCNCC1`, the survivor count is 0 of 6 (T/C endpoint: mean tumor weight, dose: 200.0 mg/kg/injection, schedule: Q01DX011 (ip), vehicle: saline, higher T/C = larger tumour) and 0 of 6 (T/C endpoint: mean tumor weight, dose: 400.0 mg/kg/injection, schedule: Q01DX011 (ip), vehicle: saline, higher T/C = larger tumour).
Turning to `NC(=S)N/N=C\c1ncnc2ccccc12`, the survivor count (T/C endpoint: median survival time, dose: 12.5 mg/kg/injection, schedule: Q01DX009 (ip), vehicle: Klucel (hydroxypropylcellulose) (HPC), higher T/C = longer survival) is listed as 10 of 10; the survivor count (T/C endpoint: median survival time, dose: 25.0 mg/kg/injection, schedule: Q01DX009 (ip), vehicle: Klucel (hydroxypropylcellulose) (HPC), higher T/C = longer survival) is reported as 10 of 10; the survivor count (T/C endpoint: median survival time, dose: 50.0 mg/kg/injection, schedule: Q01DX009 (ip), vehicle: Klucel (hydroxypropylcellulose) (HPC), higher T/C = longer survival) is recorded as 10 of 10.
Take `CC1CCCCN1CCNc1ccc(CO)c2sc3ccccc3c(=O)c12` (stereo not given): under setting [1], the T/C is 135 % of control.
Regarding `CC1OC(=O)C(C(C)C)NC(=O)C(C(C)C)OC(=O)C(C(C)C)NC(=O)C(C)OC(=O)C(C(C)C)NC(=O)C(C(C)C)OC(=O)C(C(C)C)NC(=O)C(C)OC(=O)C(C(C)C)NC(=O)C(C(C)C)OC(=O)C(C(C)C)NC1=O` (stereo not given), the survivor count is reported as 9 of 10 (T/C endpoint: median survival time, dose: 2.5 mg/kg/injection, schedule: Q01DX009 (ip), vehicle: saline with Tween-80, higher T/C = longer survival); 10 of 10 (T/C endpoint: median survival time, dose: 5.0 mg/kg/injection, schedule: Q01DX009 (ip), vehicle: saline with Tween-80, higher T/C = longer survival); 10 of 10 (T/C endpoint: median survival time, dose: 10.0 mg/kg/injection, schedule: Q01DX009 (ip), vehicle: saline with Tween-80, higher T/C = longer survival); 0 of 10 (T/C endpoint: median survival time, dose: 20.0 mg/kg/injection, schedule: Q01DX009 (ip), vehicle: saline with Tween-80, higher T/C = longer survival); 0 of 10 (T/C endpoint: median survival time, dose: 40.0 mg/kg/injection, schedule: Q01DX009 (ip), vehicle: saline with Tween-80, higher T/C = longer survival). Moreover, the T/C (T/C endpoint: median survival time, dose: 6.0 mg/kg/injection, schedule: Q01DX009 (ip), vehicle: saline with Tween-80, higher T/C = longer survival) was 125 % of control.
As for `[Cl][Hg][c]1ccc2ccccc2c1`, for the setting “T/C endpoint: median survival time, dose: 1.5 mg/kg/injection, schedule: Q01DX009 (ip), vehicle: gum acacia, higher T/C = longer survival”, the T/C is 126 % of control.
For `Cc1cccc(C)c1[N+](=O)[O-]`, the survivor count (T/C endpoint: mean tumor weight, dose: 450.0 mg/kg/injection, schedule: Q01DX011 (ip), vehicle: other, higher T/C = larger tumour) is 0 of 6.
For the compound `O=[N+]([O-])c1cc([N+](=O)[O-])c(Br)cc1Cl`, the survivor count runs as follows: (T/C endpoint: median survival time, dose: 10.0 mg/kg/injection, schedule: Q01DX009 (ip), vehicle: Klucel (hydroxypropylcellulose) (HPC), higher T/C = longer survival) 10 of 10; (T/C endpoint: median survival time, dose: 20.0 mg/kg/injection, schedule: Q01DX009 (ip), vehicle: Klucel (hydroxypropylcellulose) (HPC), higher T/C = longer survival) 10 of 10; (T/C endpoint: median survival time, dose: 40.0 mg/kg/injection, schedule: Q01DX009 (ip), vehicle: Klucel (hydroxypropylcellulose) (HPC), higher T/C = longer survival) 0 of 10.
`Nc1ccccc1N`: the survivor count (T/C endpoint: median survival time, dose: 400.0 mg/kg/injection, schedule: Q02DX009 (ip), vehicle: saline with Tween-80, higher T/C = longer survival) is reported as 1 of 10.
As for `Cc1cc(NC(=O)N(CCCl)N=O)c(C)cc1NC(=O)c1ccccc1`, the T/C was 128 % of control (T/C endpoint: median survival time, dose: 12.5 mg/kg/injection, schedule: Q01DX009 (ip), vehicle: saline with Tween-80, higher T/C = longer survival); 127 % of control [9 of 10 alive] (T/C endpoint: median survival time, dose: 25.0 mg/kg/injection, schedule: Q01DX009 (ip), vehicle: saline with Tween-80, higher T/C = longer survival); 125 % of control (T/C endpoint: median survival time, dose: 50.0 mg/kg/injection, schedule: Q01DX009 (ip), vehicle: saline with Tween-80, higher T/C = longer survival). The survivor count runs as follows: (T/C endpoint: median survival time, dose: 100.0 mg/kg/injection, schedule: Q01DX009 (ip), vehicle: saline with Tween-80, higher T/C = longer survival) 10 of 10; under setting [1], 10 of 10.
Consider `O=c1cc[nH]c(=O)o1`, for which the T/C is 134 % of control (T/C endpoint: median survival time, dose: 3.0 mg/kg/injection, schedule: Q01DX009 (ip), vehicle: water, higher T/C = longer survival); 143 % of control (T/C endpoint: median survival time, dose: 6.0 mg/kg/injection, schedule: Q01DX009 (ip), vehicle: water, higher T/C = longer survival); 142 % of control (T/C endpoint: median survival time, dose: 25.0 mg/kg/injection, schedule: Q01DX009 (ip), vehicle: water, higher T/C = longer survival). For the same compound, the survivor count was 7 of 10 and 10 of 10 (T/C endpoint: median survival time, dose: 48.0 mg/kg/injection, schedule: Q01DX009 (ip), vehicle: water, higher T/C = longer survival); 10 of 10 (T/C endpoint: median survival time, dose: 50.0 mg/kg/injection, schedule: Q01DX008 (ip), vehicle: water, higher T/C = longer survival); 6 of 10 and 10 of 10 (T/C endpoint: median survival time, dose: 50.0 mg/kg/injection, schedule: Q01DX009 (ip), vehicle: water, higher T/C = longer survival); 4 of 10 (T/C endpoint: median survival time, dose: 100.0 mg/kg/injection, schedule: Q01DX008 (ip), vehicle: water, higher T/C = longer survival); 0 of 10 (T/C endpoint: median survival time, dose: 100.0 mg/kg/injection, schedule: Q01DX009 (ip), vehicle: water, higher T/C = longer survival).
As for `O=NN(CCCl)C(=O)NC1C2CC3CC(C2)CC1C3` (stereo not given), the survivor count reads like this: (T/C endpoint: median survival time, dose: 20.0 mg/kg/injection, schedule: Q01DX001 (ip), vehicle: Klucel (hydroxypropylcellulose) (HPC), higher T/C = longer survival) 10 of 10; (T/C endpoint: median survival time, dose: 40.0 mg/kg/injection, schedule: Q01DX001 (ip), vehicle: Klucel (hydroxypropylcellulose) (HPC), higher T/C = longer survival) 10 of 10; under setting [2], 10 of 10; (T/C endpoint: median survival time, dose: 160.0 mg/kg/injection, schedule: Q01DX001 (ip), vehicle: Klucel (hydroxypropylcellulose) (HPC), higher T/C = longer survival) 9 of 10; (T/C endpoint: median survival time, dose: 191.0 mg/kg/injection, schedule: Q01DX001 (ip), vehicle: saline with Tween-80, higher T/C = longer survival) 8 of 10 and 10 of 10; (T/C endpoint: median survival time, dose: 287.0 mg/kg/injection, schedule: Q01DX001 (ip), vehicle: saline with Tween-80, higher T/C = longer survival) 9 of 10 (2×). In addition, the survivor count is, setting by setting: (T/C endpoint: median survival time, dose: 320.0 mg/kg/injection, schedule: Q01DX001 (ip), vehicle: Klucel (hydroxypropylcellulose) (HPC), higher T/C = longer survival) 3 of 10 and 10 of 10; (T/C endpoint: median tumor weight (est.), dose: 127.0 mg/kg/injection, schedule: Q01DX001 (ip), vehicle: DMSO, higher T/C = larger tumour) 1 of 10 on day 14; (T/C endpoint: median tumor weight (est.), dose: 191.0 mg/kg/injection, schedule: Q01DX001 (ip), vehicle: DMSO, higher T/C = larger tumour) 0 of 10 on day 14; (T/C endpoint: median tumor weight (est.), dose: 241.0 mg/kg/injection, schedule: Q01DX001 (ip), vehicle: saline with Tween-80, higher T/C = larger tumour) 3 of 10 on day 16; (T/C endpoint: median tumor weight (est.), dose: 287.0 mg/kg/injection, schedule: Q01DX001 (ip), vehicle: DMSO, higher T/C = larger tumour) 0 of 10 on day 14; (T/C endpoint: median tumor weight (est.), dose: 287.0 mg/kg/injection, schedule: Q01DX001 (sc), vehicle: olive oil, sesame oil, peanut oil, higher T/C = larger tumour) 5 of 10 on day 14. Also, the T/C runs as follows: (T/C endpoint: median survival time, dose: 80.0 mg/kg/injection, schedule: Q01DX001 (ip), vehicle: Klucel (hydroxypropylcellulose) (HPC), higher T/C = longer survival) 141 % of control; under setting [2], 141 % of control.
Consider `CN1C(=O)C=CC1=O`, for which the survivor count (T/C endpoint: median survival time, dose: 8.0 mg/kg/injection, schedule: Q02DX009 (ip), vehicle: saline, higher T/C = longer survival) is 6 of 10.
With `O=S(=O)(O)c1cc(O)ccc1O`, the T/C is, setting by setting: (T/C endpoint: mean tumor weight, dose: 88.0 mg/kg/injection, schedule: Q01DX011 (ip), vehicle: saline, evaluated on day 12, higher T/C = larger tumour) 135 % of control; (T/C endpoint: mean tumor weight, dose: 200.0 mg/kg/injection, schedule: Q01DX011 (ip), vehicle: saline, evaluated on day 12, higher T/C = larger tumour) 140 % of control. Further, under “T/C endpoint: mean tumor weight, dose: 900.0 mg/kg/injection, schedule: Q01DX011 (ip), vehicle: saline, higher T/C = larger tumour”, the survivor count is on record as 0 of 6.
With `NCCc1ccc(O)c(O)c1`, the survivor count (T/C endpoint: median survival time, dose: 300.0 mg/kg/injection, schedule: Q01DX009 (ip), vehicle: saline, higher T/C = longer survival) is 10 of 10.
